These results are taken from article PMC1977984 (British Journal of Cancer, 1992).

What is called IC50 is the concentration that gives 50% inhibition.

What all share (test): cells
The test system of one test is CHO-KI adrr cell line. As to conditions: Cricetulus griseus, 96 h, read-out: IC50 tamoxifen. The text has this:
(§1) Br. J. Cancer (1992), 66, 833-839 ? […] Clinical effects and in vitro assessment in p-glycoprotein expressing cell lines N.S.A. Stuart', P. Philip', A.L. Harris', K. Tonkin', S. Houlbrook2, J. Kirk2, E.A. Lien3 & J. Carmichael' 'ICRF Clinical Oncology Unit, Churchill Hospital, Oxford OX3 7LJ; 2MRC Radiobiology Unit, Chilton, Didcot, Oxon; 3Department of Pharmacology and Toxicology, University of Bergen, Bergen, Norway. […] Cytotoxic drug resistance frequently affects a wide range of cytotoxic agents. It is commonly inherent, although it may also be acquired after initial response to cytotoxic drugs. Cell lines exposed in vitro to one cytotoxic drug may also become resistant to a range of structurally and functionally diverse agents. This multidrug resistant (MDR) phenotype is associ- ated with the presence of a 170 kd membrane glycoprotein, the P-glycoprotein (Pgp) (Juliano et al., 1976; Kartner et al., 1983; Riordan et al., 1985) which acts as an energy depen- dent efflux pump (Skovsgaard, 1978). […] Unfor- tunately many cause unacceptable toxicity at levels below those needed to modulate resistance and have therefore not been useful clinically (Ozols et al., 1987). Some encouraging results have however been reported in lymphoid malignan- cies. […] It is widely used in the treatment of breast cancer at doses of 20-40mgday-' and at such doses produces serum levels around 0.5 JiM (Adam et al., 1980; Fabian et al., 1980; Lien et al., 1989). […] Etoposide (VP16-213, Vepesid) is an epipodophyllotoxin derived cytotoxic drug which interferes with the action of the nuclear enzyme topoisomerase II producing lethal single and double stranded DNA breaks (Chen et al., 1984). It has activity in a number of solid tumours and resistance to it is part of the typical MDR phenotype (Endicott et al., 1989). […] The study therefore included patients with a range of relapsed and chemoresistant tumours. […] Patients had ECOG performance scores of 2 or better, had normal renal and hepatic function and had normal peripheral blood counts. […] Correspondence: N.S. Stuart. Received 13 March 1992; and in revised form 8 July 1992. 'PI Macmillan Press Ltd., 1992 Br. J. Cancer (1992), 66, 833-839 834 N.S.A. STUART et al. No formal compliance check was conducted but patients were asked specifically whether they had difficulties taking the correct number of tablets. Oral etoposide was given at a dose of 300mgday-' (150mg two times day-') for the first course. Patients who remained myelosuppressed on day 21 had the dose of etoposide reduced to 200 mg day-' for subse- quent courses. In those who had no significant myelosuppres- sion the dose of etoposide was increased to 400 mg day-'. […] Blood samples were centrifuged and the serum removed and stored at -20?C prior to measurement. […] The methods used have been published previously (Lien et al., 1989; 1987). […] The drugs were detected by being converted to fluorophors by subjecting the effluent of the column to ultra-violet light while passing through a quartz tube. The identity of the analyses was confirmed by liquid chromatography/mass spec- trometry using an on-line mass spectrometer connected to the analytical column (Lien et al., 1988). Serum levels in different patient populations were compared using the Mann-Whitney U-test. Cells and culture conditions Three pairs of cell lines were assessed. Each comprised a wild-type parental cell line and a P-glycoprotein expressing daughter line. […]

A further test has as its system MCF-7 wt cell line. As to conditions: Homo sapiens, MCF7, 96 h, read-out: IC50 tamoxifen.
From the text: as §1

A further test deals with S1/1.1 cell line. To be noted: Homo sapiens, 96 h, read-out: IC50 tamoxifen.
From the text: as §1

The next test relates to S1 cell line (SW-1573). As to conditions: Homo sapiens, SW1573, 96 h, read-out: IC50 tamoxifen.
From the text: as §1

The test system of another test is MCF-7 adrr cell line. To be noted: Homo sapiens, MCF7, 96 h, read-out: IC50 tamoxifen.
From the text: as §1

Turning to `CC/C(=C(\c1ccccc1)c1ccc(OCCN(C)C)cc1)c1ccccc1` [tamoxifen], the IC50 with CHO-KI adrr cell line came to 7.8 µM; with MCF-7 wt cell line it was 8.3 µM; in the test with S1/1.1 cell line, 12 µM; in the test on S1 cell line (SW-1573), 12 µM; in the test on MCF-7 adrr cell line, 20 µM.
